Measured data: PubChem BioAssay AID652259 (Drosophila RNAi Screening Center, 2013)

Purpose: 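Knock-downs that push a Wingless-driven reporter up or down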 (primary screen)
Cell system: Drosophila clone 8 imaginal disc epithelial cells
Reagent: long dsRNA against Drosophila genes
Conditions: pathway stimulated by co-transfected Wingless expression plasmid
Read-out: 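Firefly luciferase from a tcf-site Wingless reporter, measured alongside co-transfected Renilla luciferase that tracks transfection; pathway stimulated by a Wingless plasmid; the firefly-to-Renilla ratio is not deposited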
Direction: firefly reporter light: higher = more Wg reporter light, before normalisation; Renilla control light: higher = more transfected or surviving cells
Call rule: 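a knock-down is a candidate when at least two out of four statistical tests show it departing from its plate mean; one test alone signals a weak candidate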
Meaning of the calls: active = candidate regulator (raises or lowers reporter); inactive = not a candidate
The deposit covers about 22,000 reagents; this is a random part of those with a known target gene and a result. Over the whole deposit, 233 (1.1%) are marked active. 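Light values are raw, unnormalised plate reads; the ratio scores behind the reporter calls were not deposited.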 The numbers tell different reagents against one gene apart. A plus sign joins genes that one reagent is predicted to hit. The record does not give: the amount of reagent, the time to read-out, the dose of the treatment.

smal #1 scored firefly reporter light, replicate 1 = 4321; firefly reporter light, replicate 2 = 10054; Renilla control light, replicate 1 = 1188; Renilla control light, replicate 2 = 3226; inactive.
smal #2 showed firefly reporter light, replicate 1 = 2869; firefly reporter light, replicate 2 = 6821; Renilla control light, replicate 1 = 675; Renilla control light, replicate 2 = 2179; inactive.
Depletion of smal #3 came out at: firefly reporter light, replicate 1 = 2685; firefly reporter light, replicate 2 = 6683; Renilla control light, replicate 1 = 705; Renilla control light, replicate 2 = 2727; inactive.
For smal #4, the values are firefly reporter light, replicate 1 = 3249; firefly reporter light, replicate 2 = 6928; Renilla control light, replicate 1 = 801; Renilla control light, replicate 2 = 2413; inactive.
smal #5 gave firefly reporter light, replicate 1 = 6.27e5; firefly reporter light, replicate 2 = 6.88e5; Renilla control light, replicate 1 = 2.41e5; Renilla control light, replicate 2 = 3.02e5; inactive.
Knock-down of hbs gave: firefly reporter light, replicate 1 = 8903; Renilla control light, replicate 1 = 3688; inactive.
Gpdh3 scored firefly reporter light, replicate 1 = 33720; Renilla control light, replicate 1 = 6186; inactive.
For Iris, the values are firefly reporter light, replicate 1 = 10857; Renilla control light, replicate 1 = 4170; inactive.
CR33283 gave firefly reporter light, replicate 1 = 5.20e5; firefly reporter light, replicate 2 = 5.59e5; Renilla control light, replicate 1 = 2.06e5; Renilla control light, replicate 2 = 2.48e5; inactive.
Knock-down of CG43277 came out at: firefly reporter light, replicate 1 = 20725; Renilla control light, replicate 1 = 17812; inactive.

Limited to “Renilla control light, replicate 1”, for 2 of the entries above:
hbs	3688
Gpdh3	6186

The listing continues.
Chchd3 gave firefly reporter light, replicate 1 = 7276; Renilla control light, replicate 1 = 2167; inactive.
Depletion of Ance-5 gave: firefly reporter light, replicate 1 = 16790; Renilla control light, replicate 1 = 3434; inactive.
h-cup + Rbp scored firefly reporter light, replicate 1 = 20513; Renilla control light, replicate 1 = 3732; inactive.
CG12860 gave firefly reporter light, replicate 1 = 7025; Renilla control light, replicate 1 = 2640; inactive.
Against Nup44A, the entry reads firefly reporter light, replicate 1 = 13482; Renilla control light, replicate 1 = 3427; inactive.
With knock-down of Wdr81 the results were firefly reporter light, replicate 1 = 4903; Renilla control light, replicate 1 = 1361; inactive.
Silencing of CG14625 gave: firefly reporter light, replicate 1 = 12117; Renilla control light, replicate 1 = 7991; inactive.
With knock-down of CG7557, the screen gave firefly reporter light, replicate 1 = 9978; Renilla control light, replicate 1 = 3936; inactive.
Against CG12825 the deposit lists firefly reporter light, replicate 1 = 4226; firefly reporter light, replicate 2 = 9632; Renilla control light, replicate 1 = 373; Renilla control light, replicate 2 = 5266; inactive.
CG7432 scored firefly reporter light, replicate 1 = 19656; Renilla control light, replicate 1 = 3881; inactive.
For prc, the values are firefly reporter light, replicate 1 = 6561; Renilla control light, replicate 1 = 2919; inactive.
After knock-down of CG32079, the screen gave firefly reporter light, replicate 1 = 7.09e5; firefly reporter light, replicate 2 = 6.05e5; Renilla control light, replicate 1 = 3.05e5; Renilla control light, replicate 2 = 588; inactive.
For Ref1 #1, the entry reads firefly reporter light, replicate 1 = 10117; Renilla control light, replicate 1 = 3699; inactive.
With knock-down of Ref1 #2 the results were firefly reporter light, replicate 1 = 5.69e5; firefly reporter light, replicate 2 = 6.71e5; Renilla control light, replicate 1 = 2.05e5; Renilla control light, replicate 2 = 2.23e5; inactive.
After knock-down of Act87E the results were firefly reporter light, replicate 1 = 5.95e5; firefly reporter light, replicate 2 = 5.49e5; Renilla control light, replicate 1 = 1.31e5; Renilla control light, replicate 2 = 1.24e5; inactive.
